The results in this text go back to paper PMC11534691.

Sequences of proteins named here, by UniProt entry; tags and fusion partners are left off. A change or cut given only in a name is not applied to a line headed by its entry.
UniProt P36897: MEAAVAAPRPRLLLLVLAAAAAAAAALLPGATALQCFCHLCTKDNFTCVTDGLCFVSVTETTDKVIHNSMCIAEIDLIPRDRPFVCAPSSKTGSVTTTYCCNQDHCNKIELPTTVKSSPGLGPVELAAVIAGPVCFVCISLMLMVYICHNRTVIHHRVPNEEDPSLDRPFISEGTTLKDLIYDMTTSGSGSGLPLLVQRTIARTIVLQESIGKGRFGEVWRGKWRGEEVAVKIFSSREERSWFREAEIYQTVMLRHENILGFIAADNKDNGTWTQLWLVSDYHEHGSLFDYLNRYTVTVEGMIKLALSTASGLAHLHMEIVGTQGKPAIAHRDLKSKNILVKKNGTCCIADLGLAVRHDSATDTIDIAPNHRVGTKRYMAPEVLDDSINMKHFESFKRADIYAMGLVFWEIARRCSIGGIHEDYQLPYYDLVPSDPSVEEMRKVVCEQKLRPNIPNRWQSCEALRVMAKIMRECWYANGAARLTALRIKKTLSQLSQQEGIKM
UniProt Q96AC1: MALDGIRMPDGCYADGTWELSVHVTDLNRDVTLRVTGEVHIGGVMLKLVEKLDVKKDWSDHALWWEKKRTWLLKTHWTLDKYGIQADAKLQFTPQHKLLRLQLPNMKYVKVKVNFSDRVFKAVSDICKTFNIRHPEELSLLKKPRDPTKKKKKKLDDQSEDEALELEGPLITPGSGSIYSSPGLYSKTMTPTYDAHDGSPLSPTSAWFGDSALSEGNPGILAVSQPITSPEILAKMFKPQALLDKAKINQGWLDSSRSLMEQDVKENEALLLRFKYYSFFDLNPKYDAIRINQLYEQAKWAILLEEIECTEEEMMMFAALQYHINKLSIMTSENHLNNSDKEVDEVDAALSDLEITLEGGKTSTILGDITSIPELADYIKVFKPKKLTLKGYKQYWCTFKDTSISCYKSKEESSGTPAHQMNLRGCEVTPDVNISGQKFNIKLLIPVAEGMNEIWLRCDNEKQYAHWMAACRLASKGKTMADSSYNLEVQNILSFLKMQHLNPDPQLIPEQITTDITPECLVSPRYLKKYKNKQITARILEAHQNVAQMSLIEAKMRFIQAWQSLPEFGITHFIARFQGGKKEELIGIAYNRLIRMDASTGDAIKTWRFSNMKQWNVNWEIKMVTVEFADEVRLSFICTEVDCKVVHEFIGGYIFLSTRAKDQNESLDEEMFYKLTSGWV

These are yes or no findings as the source states them, for the method shown. A result given as binding can be weak or reduced; the word gives no strength.

The assay addresses Recombinant TβRI protein (Abcam ab105908) (UniProt P36897). The assay can be described thus: ELISA; solid phase binding assay: β1-Integrin or TβRI immobilised on 96-well plates at 5 μg/well in TBS, 20 h 4 °C; GST-Kindlin-2 added at 0–7 µM in TBS with 1 mM CaCl2, 1 mM MgCl2, 2 h 37 °C; detected with anti-GST-HRP, absorbance at 450 nm; both purified. (An ELISA detects its analyte on a solid surface through an enzyme-linked reagent.)

With “Full-length Kindlin-2, GST fusion protein (from UniProt Q96AC1 1-680)”, the binding result is reported as “binds”.
